Data as given in PubChem BioAssay AID504764 (Drosophila RNAi Screening Center, 2011)
In all, the deposit lists about 22,000 reagents; this is an unselected part of those with a known target gene and a result. Over the whole deposit, 403 (1.9%) were called active. 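Unnormalised raw counts per well; ratio z-scores behind the hit calls and whether each hit raises or lowers signal are not deposited.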 The record does not give: the amount of reagent.

Test: 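Genome-wide screen for regulators of Notch-driven gene expression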 (primary screen)
Cell system: Drosophila Kc167 cells
Knock-down reagent: long dsRNA against Drosophila genes
Time to read-out: about 5 days (4 days dsRNA, then 24 h after transfection)
Challenge: transfection of constitutively active membrane-tethered Notch lacking the extracellular domain, read 24 h later
Detection: 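Firefly luciferase from an E(spl)m3 reporter with active Notch, plus control-promoter and uninduced reporter wells for normalisation; unnormalised counts, duplicate wells a and b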
Scale: induced reporter light, run 1, well a and induced reporter light, run 1, well b: higher = more light from the Notch target reporter with active Notch; control promoter light, run 1, well a and control promoter light, run 1, well b: higher = more light from the viral control promoter (cell number, transfection, viability); uninduced reporter light, run 1, well a: higher = more light from the Notch target reporter without active Notch
Rule for the call: 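Wells with low control signal or poorly matching duplicates excluded; duplicates averaged; per source plate, z beyond ±2 for induced/control log2 ratio or beyond ±1.8 for induced/uninduced marks a hit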
Calls: active = modifier hit (raised or lowered Notch signal); inactive = not a hit

With knock-down of CG8414 [SID104186960], the screen gave induced reporter light, run 1, well a = 62535; induced reporter light, run 1, well b = 69850; control promoter light, run 1, well a = 79820; control promoter light, run 1, well b = 72435; uninduced reporter light, run 1, well a = 5005; inactive.
Against rgr [SID104186279] the deposit lists induced reporter light, run 1, well a = 1.33e5; induced reporter light, run 1, well b = 1.22e5; control promoter light, run 1, well a = 1.27e5; control promoter light, run 1, well b = 97940; uninduced reporter light, run 1, well a = 10585; inactive.
For rgr [SID104187021], the entry reads induced reporter light, run 1, well a = 83300; induced reporter light, run 1, well b = 97200; control promoter light, run 1, well a = 68950; control promoter light, run 1, well b = 61590; uninduced reporter light, run 1, well a = 6765; inactive.
Silencing of CG5390 [SID104182647] gave: induced reporter light, run 1, well a = 88970; induced reporter light, run 1, well b = 1.26e5; control promoter light, run 1, well a = 59280; control promoter light, run 1, well b = 72930; uninduced reporter light, run 1, well a = 16460; inactive.
After knock-down of CG18744 [SID104195173], the screen gave induced reporter light, run 1, well a = 82755; induced reporter light, run 1, well b = 70635; control promoter light, run 1, well a = 91045; control promoter light, run 1, well b = 70430; uninduced reporter light, run 1, well a = 4932; inactive.
With knock-down of Diap1 [SID104191196], the screen gave induced reporter light, run 1, well a = 1330; induced reporter light, run 1, well b = 838; control promoter light, run 1, well a = 3565; control promoter light, run 1, well b = 2820; uninduced reporter light, run 1, well a = 238; inactive.
stw [SID104184634] showed induced reporter light, run 1, well a = 1.69e5; induced reporter light, run 1, well b = 1.62e5; control promoter light, run 1, well a = 1.74e5; control promoter light, run 1, well b = 1.41e5; uninduced reporter light, run 1, well a = 12080; inactive.
stw [SID104184635] gave induced reporter light, run 1, well a = 1.80e5; induced reporter light, run 1, well b = 1.76e5; control promoter light, run 1, well a = 1.59e5; control promoter light, run 1, well b = 1.65e5; uninduced reporter light, run 1, well a = 13500; inactive.
stw [SID104201970] gave inactive.
CG10845 [SID104194064] gave induced reporter light, run 1, well a = 1.83e5; induced reporter light, run 1, well b = 1.63e5; control promoter light, run 1, well a = 2.16e5; control promoter light, run 1, well b = 1.98e5; uninduced reporter light, run 1, well a = 13395; inactive.
For Pvf3 [SID104182076], the entry reads induced reporter light, run 1, well a = 70190; induced reporter light, run 1, well b = 63700; control promoter light, run 1, well a = 73940; control promoter light, run 1, well b = 76735; uninduced reporter light, run 1, well a = 4640; inactive.
Against Pvf3 [SID104182077], the entry reads induced reporter light, run 1, well a = 66190; induced reporter light, run 1, well b = 55225; control promoter light, run 1, well a = 62335; control promoter light, run 1, well b = 62260; uninduced reporter light, run 1, well a = 4370; inactive.
Depletion of Pvf3 [SID104182078] came out at: induced reporter light, run 1, well a = 66940; induced reporter light, run 1, well b = 58045; control promoter light, run 1, well a = 28325; control promoter light, run 1, well b = 33615; uninduced reporter light, run 1, well a = 4150; active.
Pvf3 [SID104182543] gave induced reporter light, run 1, well a = 55415; induced reporter light, run 1, well b = 55185; control promoter light, run 1, well a = 55515; control promoter light, run 1, well b = 49260; uninduced reporter light, run 1, well a = 4450; inactive.
With knock-down of cv-d [SID104196314] the results were induced reporter light, run 1, well a = 2.60e5; induced reporter light, run 1, well b = 2.36e5; control promoter light, run 1, well a = 4.16e5; control promoter light, run 1, well b = 4.74e5; uninduced reporter light, run 1, well a = 15238; active.
Depletion of cv-d [SID104196316] gave: induced reporter light, run 1, well a = 1.85e5; induced reporter light, run 1, well b = 1.86e5; control promoter light, run 1, well a = 1.81e5; control promoter light, run 1, well b = 1.71e5; uninduced reporter light, run 1, well a = 12880; inactive.
With knock-down of cv-d [SID104196318], the record shows induced reporter light, run 1, well a = 1.79e5; induced reporter light, run 1, well b = 2.12e5; control promoter light, run 1, well a = 1.84e5; control promoter light, run 1, well b = 1.58e5; uninduced reporter light, run 1, well a = 14460; inactive.
For nonA-l [SID104196809], the values are induced reporter light, run 1, well a = 2.09e5; induced reporter light, run 1, well b = 1.77e5; control promoter light, run 1, well a = 2.35e5; control promoter light, run 1, well b = 2.49e5; uninduced reporter light, run 1, well a = 16455; inactive.

Entries above whose target name begins with R or r:
rgr [SID104186279]: induced reporter light, run 1, well a = 1.33e5; induced reporter light, run 1, well b = 1.22e5; control promoter light, run 1, well a = 1.27e5; control promoter light, run 1, well b = 97940; uninduced reporter light, run 1, well a = 10585; activity call = inactive
rgr [SID104187021]: induced reporter light, run 1, well a = 83300; induced reporter light, run 1, well b = 97200; control promoter light, run 1, well a = 68950; control promoter light, run 1, well b = 61590; uninduced reporter light, run 1, well a = 6765; activity call = inactive
